# Results published in the supplement of paper PMC12067093, “Discovery and optimisation of a covalent ligand for TRIM25 and its application to targeted protein ubiquitination” (Chemical Science, 2025).
# Amino acid sequences for entries named in this document (tags omitted). A change or cut given only in a name is not applied to a line headed by its entry.
# UniProt O43592: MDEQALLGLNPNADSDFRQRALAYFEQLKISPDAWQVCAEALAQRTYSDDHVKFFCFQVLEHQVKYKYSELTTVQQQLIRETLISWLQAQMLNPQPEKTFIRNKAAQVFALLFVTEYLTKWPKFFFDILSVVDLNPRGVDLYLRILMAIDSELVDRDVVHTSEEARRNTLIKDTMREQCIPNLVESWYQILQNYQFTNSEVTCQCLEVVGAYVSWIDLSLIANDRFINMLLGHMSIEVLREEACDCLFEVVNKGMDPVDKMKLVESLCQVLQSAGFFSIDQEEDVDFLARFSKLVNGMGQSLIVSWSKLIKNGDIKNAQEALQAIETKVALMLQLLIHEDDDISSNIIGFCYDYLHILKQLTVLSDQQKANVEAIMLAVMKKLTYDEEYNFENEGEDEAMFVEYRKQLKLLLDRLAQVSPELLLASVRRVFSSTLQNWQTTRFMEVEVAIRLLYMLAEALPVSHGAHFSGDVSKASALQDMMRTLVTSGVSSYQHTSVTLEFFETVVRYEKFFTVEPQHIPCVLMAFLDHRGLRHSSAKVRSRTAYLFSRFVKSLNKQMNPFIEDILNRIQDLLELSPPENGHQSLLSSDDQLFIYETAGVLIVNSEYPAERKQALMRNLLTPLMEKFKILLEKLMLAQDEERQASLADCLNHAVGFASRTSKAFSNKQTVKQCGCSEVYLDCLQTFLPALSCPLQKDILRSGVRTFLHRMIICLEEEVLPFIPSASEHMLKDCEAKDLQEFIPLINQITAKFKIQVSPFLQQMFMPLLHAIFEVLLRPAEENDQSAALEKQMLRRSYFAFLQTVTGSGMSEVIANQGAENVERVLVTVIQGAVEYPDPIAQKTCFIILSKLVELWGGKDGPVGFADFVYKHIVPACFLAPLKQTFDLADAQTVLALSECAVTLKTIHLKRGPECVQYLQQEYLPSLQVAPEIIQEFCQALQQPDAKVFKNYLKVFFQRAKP
# UniProt Q9UGR2: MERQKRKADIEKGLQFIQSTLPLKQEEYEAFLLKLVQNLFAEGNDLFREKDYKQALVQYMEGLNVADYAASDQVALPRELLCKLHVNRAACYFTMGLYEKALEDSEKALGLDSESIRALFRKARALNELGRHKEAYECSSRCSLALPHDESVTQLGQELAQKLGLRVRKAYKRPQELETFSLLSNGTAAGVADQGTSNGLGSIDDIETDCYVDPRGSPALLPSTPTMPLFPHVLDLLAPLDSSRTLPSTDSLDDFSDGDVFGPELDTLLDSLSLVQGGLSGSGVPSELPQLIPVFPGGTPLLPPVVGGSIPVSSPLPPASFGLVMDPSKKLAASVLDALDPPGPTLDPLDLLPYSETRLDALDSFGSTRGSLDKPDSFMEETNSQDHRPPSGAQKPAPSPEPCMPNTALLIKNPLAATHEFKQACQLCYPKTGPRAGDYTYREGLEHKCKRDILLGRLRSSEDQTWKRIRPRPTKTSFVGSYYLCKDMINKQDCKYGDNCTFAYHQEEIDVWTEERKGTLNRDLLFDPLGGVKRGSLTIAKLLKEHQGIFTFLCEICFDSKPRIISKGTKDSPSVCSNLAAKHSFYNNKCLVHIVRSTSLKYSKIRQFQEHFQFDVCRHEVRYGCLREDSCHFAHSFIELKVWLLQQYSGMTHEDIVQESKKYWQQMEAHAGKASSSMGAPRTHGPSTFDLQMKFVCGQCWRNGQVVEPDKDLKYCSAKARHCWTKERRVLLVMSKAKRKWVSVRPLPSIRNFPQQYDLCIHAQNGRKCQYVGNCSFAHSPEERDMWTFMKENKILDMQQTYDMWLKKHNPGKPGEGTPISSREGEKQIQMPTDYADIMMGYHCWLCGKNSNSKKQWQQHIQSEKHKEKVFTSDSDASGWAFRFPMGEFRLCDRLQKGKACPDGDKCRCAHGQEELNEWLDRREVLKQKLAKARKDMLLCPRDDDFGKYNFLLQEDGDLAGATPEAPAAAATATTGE
# The other results are listed elsewhere or left out.
# Experiments:
# [1] = target: XPOT_O43592_877_HIVPACFLAPLK (UniProt O43592); assay: probe-labelled cysteine peptide fold change vs DMSO (competition) (log2 fold change); higher = less target engagement (more negative = stronger competition); settings: THP-1, incubation time: 4 h
# [2] = target: ZC3H7B_Q9UGR2_590_CLVHIVR (UniProt Q9UGR2); assay: as above; settings: THP-1, incubation time: 4 h
# 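Note: competitive chemoproteomic profiling in live THP-1 cells with an iodoacetamide desthiobiotin (IA-DTB) probe, comparing probe-labelled peptide intensities in compound-treated cells against DMSO-treated controls.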
compound,measurement,setting,value
CC1Cc2ccccc2N1C(=O)C1CCCN(C(=O)CCl)C1 (mixture of isomers) [TRIM25 ligand 11 (diastereomer mixture)],probe-labelled cysteine peptide fold change,[1]; 10 µM,0.0433
same,probe-labelled cysteine peptide fold change,[1]; 50 µM,0.0734
same,probe-labelled cysteine peptide fold change,[2]; 10 µM,0.0726
same,probe-labelled cysteine peptide fold change,[2]; 50 µM,0.112
